Test system: CFA-hyperalgesia (CFA-HA)
Experiment: Antihyperalgesic effect in the chronic inflammation pain model (Complete Freund's Adjuvant, electronic von Frey)
Assay type: in vivo, Sprague Dawley rats
Conditions: rat, IV
Protocol: The test to determine the antihyperalgesic effect of axomadol in chronic inflammation pain was conducted on rats in the Complete Freund's Adjuvant animal model (CFA).
A model for chronic inflammation represents the monoarthritis triggered by the Complete Freund's Adjuvant (CFA). By injecting a small quantity of CFA (100 μg M. tuberculosis) into the back paw a local inflammatory reaction restricted in time to 2-4 weeks occurred.
Sprague Dawley rats from a commercial breeder (Janvier, Belgium) having a weight of 140-160 g were used as test animals. The CFA-HA was induced in rats by subplantar injection of CFA (100 μl of the 1 mg/ml mycobacteria (heat-killed M. tuberculosis)/oil suspension (IFA; Difco)) into the back paw (ipsilaterally). The injection day was defined as day 0 (d 0).
Hyperalgesia to a mechanical tactile stimulus was detected by means of an electronic von Frey measuring instrument (Somedic Electronic von Frey System, Somedic Sales AB, Horby, Sweden). The paw was stimulated by subplantar application. To quantify the sensitivity of both the ipsi- and the contralateral paw to the mechanical stimulus, the paw pull-away threshold was given in grams of applied pressure. The median was formed from the four measured values per paw. The pull-away threshold of the ipsi- and contralateral paw was determined on day 1 after CFA injection before (=initial value) and at different times (15, 20 and 60 minutes) after substance dose (measured value). The efficacy of a substance was calculated as % inhibition of hyperalgesia as follows:
% inhibition of HA=(1−HA measured value/HA initial value)×100
HA initial value=pull away threshold contralateral−pull away threshold ipsilateral before substance dose
HA measured value=pull away threshold contralateral−pull away threshold ipsilateral after substance dose
In total, 10 rats were used in each test animal group. The mean±SEM was calculated from the medians of the individual animals. The significance calculation was conducted using the two-factor analysis of the variance (ANOVA) for repeated measurements. In the case of a significant treatment effect, a comparison in pairs was conducted at different measurement times by a Fisher's significance test, followed by a post hoc Dunnett test. The results were assessed as statistically significant at p<0.05.
In order to determine the maximum efficacy, the substance was administered intravenously (IV) up to the maximum possible dose.

## COc1cccc(C2(O)CCCCC2CN(C)C)c1 (stereo not shown) [Tramadol]
Dose 2.15 mg/kg
  % Inhibition of HA: 5%
Dose 4.64 mg/kg
  % Inhibition of HA: 29%
Dose 6.81 mg/kg
  % Inhibition of HA: 28%
Dose of maximum: axomadol-HCl 10, morphine 2.15, oxycodone 0.681, tramadol 4.64 mg/kg
  Max. effect (maximum % inhibition of hyperalgesia): Max. effect = 29% at 4.64 mg/kg.

Source: patent US20100331424A1, “Use of Axomadol for Treatment of Arthrosis Pain” (Gruenenthal GmbH, priority 2007, published 2010)
